According to PubChem BioAssay AID493014 (National Center for Advancing Translational Sciences (NCATS), 2011):
Among all 340,000 compounds or so, about 170 (0.05%) were called active. Inconclusive results, whose numbers are uncertain, are shown with a selection of clear calls. The call rests on the fitted dose curve; in most records, active means well fitted inhibition curve with a large enough effect in the signal ratio, with a control signal flat (not every such curve was filed as active); inconclusive means small, poorly fitted or top-dose-only effect, or effect the other way, or a change in a side signal; inactive means flat fitted curve, though single readings scatter; the % refers to the signal ratio. Potencies of inconclusive entries are doubtful fits and often do not repeat.

Test: qHTS Assay to Find Inhibitors of Chronic Active B-Cell Receptor Signaling;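 on activity change, negative = inhibition: plate controls were basal doxycycline-induced cells for no effect and cells given 10 µM MG132 for full effect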
Conditions: ABC-DLBCL IkBa-CBG/CBR reporter, luminescence ratio (green luciferase fused to IkBa over red control in TMD8 lymphoma cells), 4 h; activity change, negative = inhibition: at 46.1 µM (top of the series) unless noted
How it was run: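 TMD8 human ABC-DLBCL cells with doxycycline-inducible IκBα–green luciferase fusion and unfused red luciferase, in 0.5% FBS medium; compounds up to 46 uM, 4 h at 37C. Green/red luminescence ratio, filter-overlap corrected, fitted to concentration-response curves.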
Potency means the concentration at half of the fitted maximal effect.

| Structure (SMILES) | activity change, negative = inhibition | Potency |
| --- | --- | --- |
| CC(C)C(=O)NCCn1ccc2ccccc21 | inactive: 3.38% |  |
| O=S1(=O)c2ccc(Br)cc2N2CCC[C@@H]2CN1Cc1ccccc1 | inconclusive: 0.792% |  |
| COc1ccc(C2CC(c3cccs3)=NN2C(=O)CSc2nc(=O)n3ccc(C)cc3n2)cc1 (stereo unspecified) | inactive: 10.1% |  |
| NC(=O)Nc1ccc(C(=O)OCC(=O)c2c[nH]c3ccccc23)cc1 |  | inconclusive: 9.2 µM [falling, partial curve] |
| N#CC1=C(N)C(C#N)(C#N)C(c2ccc[nH]2)C2CCCC=C12 (stereo unspecified) | inactive: 5.1% |  |
| O=C(COc1ccccc1)Nc1ccccc1F |  | inconclusive: 20 µM [falling, single point] |
| CC1(C)Cc2c(sc(NC(=O)COc3cccc4ccccc34)c2C#N)C(C)(C)N1 | inconclusive: 23.6% |  |
| Cc1ccc(C(=O)Nc2cc(=O)n(C)c(=O)n2C)o1 | inconclusive: 13.4% |  |
| O=C(Nc1cc(Br)ccc1O)c1cc(-c2ccco2)on1 |  | inconclusive: 14.1 µM [falling, single point] |
| CC(=O)c1cc2c(C)c(C(=O)c3ccccc3)oc2cc1O | inconclusive: 0.0902% |  |
| Fc1ccccc1CSc1nnc(-c2cccs2)o1 | inconclusive: 0.23% |  |
| CC(C)CNC(=S)N(CCO)Cc1cc2cc3c(cc2[nH]c1=O)OCO3 | inactive: -8.38% |  |
| CCSC1=N/C(=C\c2ccc(OC)cc2)C(=O)N1 | inconclusive: 6.34% |  |
| CCN(CC)S(=O)(=O)c1ccc(N2CCCC2)c(NC(=O)c2c(-c3ccccc3)noc2C)c1 | inconclusive: 3.01% |  |
| O=C(Nc1cc(Cl)cc(Cl)c1)N1CCCC1 |  | inconclusive: 15.8 µM [falling, partial curve] |
| N#CC1=C(SCC(=O)Nc2cccc3cccnc23)NC(=O)C(C#N)C12CCCCC2 (stereo unspecified) | inconclusive: -9.29% |  |
| O=C1NC2(CCCC2)C(=O)N1Cc1cc(=O)n2ccsc2n1 | inconclusive: 4.32% |  |
| CC(=O)Nc1ccccc1C(=O)N1CCN(c2cccc(C)c2C)CC1 | inactive: -18.2% |  |
| COc1cccc(C(=O)N=c2sc3cc(S(C)(=O)=O)ccc3n2C)c1 | inactive: 2.32% |  |
| CC(=O)N1N=C(c2ccccc2O)OC1(C)CC(=O)Nc1ccccc1 (stereo unspecified) |  | inconclusive: 20.6 µM [falling, single point] |
| CS(=O)(=O)c1nc(-c2ccco2)cc(C(F)(F)F)n1 |  | inconclusive: 22.4 µM [rising, single point] |
| O=C(Nc1ccccc1[N+](=O)[O-])C1=C(O)CCn2c1nc1ccccc12 |  | inconclusive: 0.116 µM [falling, full curve, poor fit] |
| NC(=O)c1sc2nc(N3CCOCC3)c3c(c2c1N)CCCC3 |  | inconclusive: 16.4 µM [falling, single point] |
| COc1ccc2nc(Cl)c(/C=N/Nc3ccccn3)cc2c1 | inconclusive: 8.99% |  |
| COc1ccc(-c2cc(-c3nnc(COC(=O)CC4CC5CCC4C5)o3)c3ccccc3n2)cc1OC (stereo unspecified) | inactive: -16.7% |  |
| C/C(CC(=O)Nc1cccc(C(F)(F)F)c1)=N\NC(=O)C1CCCCC1 |  | inconclusive: 15.8 µM [falling, partial curve, poor fit] |

| Structure (SMILES) | activity change, negative = inhibition | Potency |
| --- | --- | --- |
| COc1cc(OC)cc(C(=O)N[C@H](C(=O)Nc2nc3ccccc3[nH]2)C(C)C)c1 |  | inconclusive: 3.16 µM [falling, partial curve, poor fit] |
| CCCCC(=O)Nc1cc(Cl)ccc1C(=O)O | inconclusive: -3.51% |  |
| CCn1c(Cl)c(C=O)s/c1=N\S(=O)(=O)c1ccccc1 |  | inconclusive: 35.5 µM [rising, single point] |
| COc1ccc(NC(=O)Cn2c(=O)sc3ccccc32)cc1 |  | inconclusive: 29.1 µM [falling, single point] |
| Cc1ccc(S(=O)(=O)N(C)CC(=O)N2CCCCCC2)cc1 | inactive: 5.24% |  |
| CC(=O)N1c2ccccc2CCc2ccc(N)cc21 | inconclusive: 2.68% |  |
| CC(C)CC(=O)Nc1ccc2c(c1)nc(CCN1CCCCC1)n2C | inconclusive: -17.5% |  |
| N/C(=N\OC(=O)c1ccc(Br)cc1)c1ccncc1 | inconclusive: 8.06% |  |
| C[C@@H]1CN(CCCn2c3ccccc3c3ccccc32)C[C@H](C)N1 |  | inconclusive: 12.6 µM [falling, partial curve, poor fit] |
| Cc1ccc(C)c(Cn2c(=O)n(-c3ccc(CC(=O)NCc4ccco4)cc3)c(=O)c3sccc32)c1 | inconclusive: -8.04% |  |
| CCOc1ccc(NC(=O)COC(=O)CSCC(=O)Nc2ccc(C)cc2C)cc1 | inconclusive: -1.66% |  |
| CC(C)NC(=O)NNC(=O)Cn1nnc(-c2cccc(Cl)c2Cl)n1 |  | inconclusive: 35.5 µM [falling, single point] |
| CC1CCCC(C)N1C(=O)CSc1nc2c(c(=O)n(C)c(=O)n2C)n1C (stereo unspecified) | inconclusive: 8.79% |  |
| COc1ccc2nc(Nc3nc(C)c(C(C)=O)s3)sc2c1 |  | inconclusive: 3.55 µM [falling, single point] |
| CCOC(=O)c1sc2nc(C)nc(NCc3ccccc3OC)c2c1C | inactive: 1.27% |  |
| COc1ccc(N2CCN(CC(=O)c3c(C)n(C)c4ccc(OC)cc34)CC2)cc1 | inconclusive: -2.5% |  |
| CN(c1cccc(Cl)c1)S(=O)(=O)c1cccc(C(=O)NC2=NCCS2)c1 |  | inconclusive: 12.6 µM [falling, single point] |
| O=C(N/N=C\c1ccccn1)C1COc2cc3ccccc3cc2O1 (stereo unspecified) |  | inconclusive: 2.82 µM [cytotoxic, full curve] |
| COc1cccc(NC(=O)c2ccc(CN3CCc4ccccc4C3)cc2)c1 | inconclusive: 1.28% |  |
| CCc1cccc(C)c1Nc1nc2ccccc2n2cnnc12 | inconclusive: -0.713% |  |
| O=C(CN1C(=O)c2ccccc2C1=O)c1ccc(F)cc1 |  | inconclusive: 35.5 µM [falling, single point] |
| CC(=O)NCC1COc2ccccc2O1 (stereo unspecified) | inactive: -5.81% |  |
| Nc1nc(SCc2nc3scc(-c4cccs4)c3c(=O)[nH]2)n[nH]1 | inconclusive: 6.34% |  |
| c1ccc(CN=C2NN=C(c3ccccc3)CS2)cc1 |  | inconclusive: 17.8 µM [falling, partial curve] |
| COc1c(CC=C(C)C)cc(C2CC(=O)c3c(O)cc(O)cc3O2)cc1CC=C(C)C (stereo unspecified) | inconclusive: 0.203% |  |

2 entries picked at random from those above:

| Structure (SMILES) | activity change, negative = inhibition | Potency |
| --- | --- | --- |
| COc1cc(OC)cc(C(=O)N[C@H](C(=O)Nc2nc3ccccc3[nH]2)C(C)C)c1 |  | inconclusive: 3.16 µM [falling, partial curve, poor fit] |
| Cc1ccc(S(=O)(=O)N(C)CC(=O)N2CCCCCC2)cc1 | inactive: 5.24% |  |
